Source: the supplement of paper PMC10849652
The other results are listed elsewhere or left out.

By UniProt entry, the sequences of proteins in these tests, tags left out. Where a name states a change or a piece, a line headed by the entry shows the natural chain unless it says otherwise.
UniProt Q6UWY0: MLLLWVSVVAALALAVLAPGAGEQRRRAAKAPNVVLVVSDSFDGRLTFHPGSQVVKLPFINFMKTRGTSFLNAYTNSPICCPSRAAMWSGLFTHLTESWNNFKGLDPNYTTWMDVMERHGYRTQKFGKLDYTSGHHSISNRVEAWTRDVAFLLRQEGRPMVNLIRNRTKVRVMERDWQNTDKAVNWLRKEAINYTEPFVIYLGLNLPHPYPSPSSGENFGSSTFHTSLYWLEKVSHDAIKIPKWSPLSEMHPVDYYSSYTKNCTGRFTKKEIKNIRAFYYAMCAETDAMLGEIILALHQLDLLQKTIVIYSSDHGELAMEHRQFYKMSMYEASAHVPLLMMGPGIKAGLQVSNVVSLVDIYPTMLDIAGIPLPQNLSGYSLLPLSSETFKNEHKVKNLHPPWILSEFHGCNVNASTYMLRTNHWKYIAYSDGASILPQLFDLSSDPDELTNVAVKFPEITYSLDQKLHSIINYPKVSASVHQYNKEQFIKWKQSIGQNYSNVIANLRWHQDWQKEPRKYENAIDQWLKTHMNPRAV
UniProt Q2TAZ0: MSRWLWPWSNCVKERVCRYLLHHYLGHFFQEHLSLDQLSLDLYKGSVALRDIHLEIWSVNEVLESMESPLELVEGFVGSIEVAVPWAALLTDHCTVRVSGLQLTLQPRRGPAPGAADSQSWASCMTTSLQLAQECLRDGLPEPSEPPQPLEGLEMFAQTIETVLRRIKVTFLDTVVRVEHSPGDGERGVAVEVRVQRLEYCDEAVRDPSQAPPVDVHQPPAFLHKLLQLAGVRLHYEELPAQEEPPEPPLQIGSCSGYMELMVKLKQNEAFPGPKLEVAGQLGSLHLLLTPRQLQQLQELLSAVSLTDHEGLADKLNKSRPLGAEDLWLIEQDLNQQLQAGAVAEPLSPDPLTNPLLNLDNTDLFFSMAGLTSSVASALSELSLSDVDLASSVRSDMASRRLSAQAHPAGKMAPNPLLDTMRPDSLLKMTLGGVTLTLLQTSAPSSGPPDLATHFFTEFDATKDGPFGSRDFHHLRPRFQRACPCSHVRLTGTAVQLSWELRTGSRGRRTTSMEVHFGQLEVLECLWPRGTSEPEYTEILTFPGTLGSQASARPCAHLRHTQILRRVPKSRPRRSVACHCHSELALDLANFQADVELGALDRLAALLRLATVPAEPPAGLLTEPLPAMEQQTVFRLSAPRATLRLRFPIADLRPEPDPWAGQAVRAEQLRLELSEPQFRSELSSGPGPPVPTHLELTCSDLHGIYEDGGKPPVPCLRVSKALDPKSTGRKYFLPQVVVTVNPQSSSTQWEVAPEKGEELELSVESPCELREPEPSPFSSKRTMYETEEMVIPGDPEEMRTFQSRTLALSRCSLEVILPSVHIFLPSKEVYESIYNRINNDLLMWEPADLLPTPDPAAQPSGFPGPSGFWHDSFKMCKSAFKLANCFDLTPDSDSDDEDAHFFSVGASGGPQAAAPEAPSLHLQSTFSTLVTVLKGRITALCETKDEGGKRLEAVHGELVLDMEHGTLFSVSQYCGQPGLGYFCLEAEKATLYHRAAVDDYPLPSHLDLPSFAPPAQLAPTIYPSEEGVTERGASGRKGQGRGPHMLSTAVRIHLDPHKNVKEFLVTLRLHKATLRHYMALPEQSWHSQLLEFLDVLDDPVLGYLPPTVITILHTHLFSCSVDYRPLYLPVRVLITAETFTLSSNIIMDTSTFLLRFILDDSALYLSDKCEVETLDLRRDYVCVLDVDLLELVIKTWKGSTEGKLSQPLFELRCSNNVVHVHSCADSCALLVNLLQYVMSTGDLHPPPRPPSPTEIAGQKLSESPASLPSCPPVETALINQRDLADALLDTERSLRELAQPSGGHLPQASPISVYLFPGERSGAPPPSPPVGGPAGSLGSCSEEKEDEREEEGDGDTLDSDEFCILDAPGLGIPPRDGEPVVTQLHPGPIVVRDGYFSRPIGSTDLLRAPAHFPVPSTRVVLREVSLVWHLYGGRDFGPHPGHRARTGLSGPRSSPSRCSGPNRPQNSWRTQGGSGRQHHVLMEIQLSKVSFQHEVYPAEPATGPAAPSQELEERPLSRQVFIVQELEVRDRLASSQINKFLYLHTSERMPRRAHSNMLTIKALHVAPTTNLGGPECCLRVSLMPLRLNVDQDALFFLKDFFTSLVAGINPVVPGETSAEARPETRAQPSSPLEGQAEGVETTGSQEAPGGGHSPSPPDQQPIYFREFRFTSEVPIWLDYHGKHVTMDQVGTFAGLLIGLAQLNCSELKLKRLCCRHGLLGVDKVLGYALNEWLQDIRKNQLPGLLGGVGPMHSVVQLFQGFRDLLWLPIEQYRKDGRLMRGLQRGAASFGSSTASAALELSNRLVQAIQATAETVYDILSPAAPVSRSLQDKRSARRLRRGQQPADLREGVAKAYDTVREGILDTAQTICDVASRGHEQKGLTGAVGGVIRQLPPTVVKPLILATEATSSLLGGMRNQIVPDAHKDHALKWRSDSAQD
UniProt Q9NWX5: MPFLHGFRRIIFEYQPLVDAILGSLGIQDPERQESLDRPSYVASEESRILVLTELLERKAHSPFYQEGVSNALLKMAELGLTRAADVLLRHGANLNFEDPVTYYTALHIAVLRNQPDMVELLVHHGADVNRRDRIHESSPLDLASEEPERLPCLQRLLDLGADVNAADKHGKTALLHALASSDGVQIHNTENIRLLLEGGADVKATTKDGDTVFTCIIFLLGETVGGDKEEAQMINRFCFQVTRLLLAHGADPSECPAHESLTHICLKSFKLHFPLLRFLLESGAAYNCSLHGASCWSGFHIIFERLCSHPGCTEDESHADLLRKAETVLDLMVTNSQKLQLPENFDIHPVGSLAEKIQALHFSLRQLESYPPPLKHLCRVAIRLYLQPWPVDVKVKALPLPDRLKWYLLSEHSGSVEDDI
UniProt Q6ZNE5, whole entry, looked up: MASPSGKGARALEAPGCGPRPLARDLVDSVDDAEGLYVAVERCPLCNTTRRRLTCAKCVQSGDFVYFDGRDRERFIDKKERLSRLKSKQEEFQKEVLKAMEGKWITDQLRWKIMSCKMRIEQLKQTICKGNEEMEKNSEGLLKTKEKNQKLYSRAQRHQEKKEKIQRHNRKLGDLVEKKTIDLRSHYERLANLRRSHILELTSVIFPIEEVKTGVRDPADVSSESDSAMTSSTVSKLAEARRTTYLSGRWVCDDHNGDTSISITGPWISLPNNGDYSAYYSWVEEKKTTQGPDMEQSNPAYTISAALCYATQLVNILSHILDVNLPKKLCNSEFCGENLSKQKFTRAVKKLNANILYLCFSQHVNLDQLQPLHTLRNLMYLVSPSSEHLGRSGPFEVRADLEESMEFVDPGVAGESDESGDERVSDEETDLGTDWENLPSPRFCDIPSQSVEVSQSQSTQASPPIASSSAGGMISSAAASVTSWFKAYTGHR
UniProt P98194: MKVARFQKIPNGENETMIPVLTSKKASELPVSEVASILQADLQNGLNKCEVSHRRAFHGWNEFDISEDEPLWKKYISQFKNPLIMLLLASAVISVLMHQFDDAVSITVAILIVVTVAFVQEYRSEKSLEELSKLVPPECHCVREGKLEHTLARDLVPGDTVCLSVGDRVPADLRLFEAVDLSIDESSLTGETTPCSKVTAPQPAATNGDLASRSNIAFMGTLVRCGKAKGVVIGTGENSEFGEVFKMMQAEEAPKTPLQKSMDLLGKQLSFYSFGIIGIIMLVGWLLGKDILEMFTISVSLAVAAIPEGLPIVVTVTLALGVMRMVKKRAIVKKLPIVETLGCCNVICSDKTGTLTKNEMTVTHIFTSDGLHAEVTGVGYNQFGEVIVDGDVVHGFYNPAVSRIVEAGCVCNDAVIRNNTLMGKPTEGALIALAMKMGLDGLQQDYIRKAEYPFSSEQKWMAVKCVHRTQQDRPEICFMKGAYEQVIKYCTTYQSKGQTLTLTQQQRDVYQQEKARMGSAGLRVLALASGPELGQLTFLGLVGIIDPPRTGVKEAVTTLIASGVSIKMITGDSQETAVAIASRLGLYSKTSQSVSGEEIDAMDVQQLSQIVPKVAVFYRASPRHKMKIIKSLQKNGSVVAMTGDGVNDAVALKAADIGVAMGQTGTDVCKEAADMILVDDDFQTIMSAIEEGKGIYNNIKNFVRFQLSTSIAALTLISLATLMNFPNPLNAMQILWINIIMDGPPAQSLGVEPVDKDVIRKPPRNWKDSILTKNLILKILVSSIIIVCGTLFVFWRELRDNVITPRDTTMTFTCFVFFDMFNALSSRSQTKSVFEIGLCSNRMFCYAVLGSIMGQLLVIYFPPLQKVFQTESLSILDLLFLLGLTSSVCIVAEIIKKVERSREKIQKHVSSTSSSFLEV
UniProt Q8N5M1: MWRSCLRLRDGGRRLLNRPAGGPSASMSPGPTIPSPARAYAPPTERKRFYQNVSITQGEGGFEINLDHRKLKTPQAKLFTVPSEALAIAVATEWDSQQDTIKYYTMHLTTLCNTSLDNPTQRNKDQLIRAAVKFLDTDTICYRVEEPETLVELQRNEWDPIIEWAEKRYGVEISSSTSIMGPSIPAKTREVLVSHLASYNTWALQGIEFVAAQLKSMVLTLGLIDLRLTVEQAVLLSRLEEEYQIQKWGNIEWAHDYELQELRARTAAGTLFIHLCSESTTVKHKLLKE
UniProt Q9NWL6: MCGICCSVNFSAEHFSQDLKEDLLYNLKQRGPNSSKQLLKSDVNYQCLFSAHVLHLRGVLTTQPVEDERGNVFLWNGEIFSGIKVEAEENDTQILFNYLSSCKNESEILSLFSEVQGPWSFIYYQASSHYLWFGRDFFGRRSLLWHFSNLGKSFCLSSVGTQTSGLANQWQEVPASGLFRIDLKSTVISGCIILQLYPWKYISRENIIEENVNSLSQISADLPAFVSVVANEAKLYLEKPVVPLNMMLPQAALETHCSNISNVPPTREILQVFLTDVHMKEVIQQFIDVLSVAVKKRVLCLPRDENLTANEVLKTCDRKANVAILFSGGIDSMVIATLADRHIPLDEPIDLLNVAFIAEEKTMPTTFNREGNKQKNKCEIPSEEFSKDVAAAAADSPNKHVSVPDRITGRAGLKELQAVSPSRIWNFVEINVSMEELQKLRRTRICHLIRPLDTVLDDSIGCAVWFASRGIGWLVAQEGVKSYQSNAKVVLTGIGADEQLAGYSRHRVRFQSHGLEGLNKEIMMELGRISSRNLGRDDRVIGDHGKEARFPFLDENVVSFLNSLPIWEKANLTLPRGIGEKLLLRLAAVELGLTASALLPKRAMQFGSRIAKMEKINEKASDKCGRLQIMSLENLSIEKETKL
UniProt P18850: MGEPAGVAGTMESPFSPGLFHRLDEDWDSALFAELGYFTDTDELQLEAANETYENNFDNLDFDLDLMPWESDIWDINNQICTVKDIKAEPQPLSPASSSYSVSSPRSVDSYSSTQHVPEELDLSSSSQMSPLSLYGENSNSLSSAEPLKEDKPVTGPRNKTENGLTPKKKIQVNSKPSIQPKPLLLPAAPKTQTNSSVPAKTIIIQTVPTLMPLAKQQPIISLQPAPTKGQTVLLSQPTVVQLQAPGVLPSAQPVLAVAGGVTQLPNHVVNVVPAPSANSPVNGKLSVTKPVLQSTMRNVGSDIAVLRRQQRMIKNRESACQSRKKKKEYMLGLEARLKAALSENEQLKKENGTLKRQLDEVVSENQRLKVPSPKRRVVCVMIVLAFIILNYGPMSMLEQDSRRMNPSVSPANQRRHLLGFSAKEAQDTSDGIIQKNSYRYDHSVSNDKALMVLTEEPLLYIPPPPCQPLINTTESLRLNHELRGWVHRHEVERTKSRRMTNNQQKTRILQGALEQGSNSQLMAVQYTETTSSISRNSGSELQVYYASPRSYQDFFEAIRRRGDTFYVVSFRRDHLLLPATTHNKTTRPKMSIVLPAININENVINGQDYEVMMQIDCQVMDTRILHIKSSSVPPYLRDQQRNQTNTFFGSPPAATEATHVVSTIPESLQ
UniProt Q96KC2: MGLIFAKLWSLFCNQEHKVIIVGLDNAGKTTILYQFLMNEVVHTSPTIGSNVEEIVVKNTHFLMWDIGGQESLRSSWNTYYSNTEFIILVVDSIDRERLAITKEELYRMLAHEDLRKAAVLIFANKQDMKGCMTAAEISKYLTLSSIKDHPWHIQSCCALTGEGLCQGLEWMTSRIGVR
UniProt P40617: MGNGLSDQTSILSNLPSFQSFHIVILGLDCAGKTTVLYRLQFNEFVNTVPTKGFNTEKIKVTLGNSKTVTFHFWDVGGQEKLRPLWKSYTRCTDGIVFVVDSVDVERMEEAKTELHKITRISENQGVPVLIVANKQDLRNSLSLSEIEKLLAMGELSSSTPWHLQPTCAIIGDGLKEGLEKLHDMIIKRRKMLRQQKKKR
UniProt P36543, whole entry, looked up: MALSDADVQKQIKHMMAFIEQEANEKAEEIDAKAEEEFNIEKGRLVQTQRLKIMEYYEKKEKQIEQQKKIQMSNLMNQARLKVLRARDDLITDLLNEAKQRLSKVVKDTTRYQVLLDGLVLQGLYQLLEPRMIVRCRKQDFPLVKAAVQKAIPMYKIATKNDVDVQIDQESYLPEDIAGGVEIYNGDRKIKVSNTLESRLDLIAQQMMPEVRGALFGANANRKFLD

Key:
Test in all cases: log2 fold change, soluble protein after heating vs DMSO (PISA); higher = thermal stabilisation; K562 cells, 10 uM, 30 min; active = over 0.2 and 3.5 SD of the protein, either way, in both replicates (recomputed)
[1] = compound: NC1(c2ccc(-c3nc4ccn5c(=O)[nH]nc5c4cc3-c3ccccc3)cc2)CCC1
How it was run: (§1)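 Quantification of soluble protein used TMTpro 16plex LC-MS/MS, with channel sums equalised. Samples were the supernatant after 21,000xg for 90 min of pooled aliquots from K562 cells (2×10^6 cells/mL) treated with 10 μM compound for 30 min, heated for 3 min over 48°C-58°C, and extracted in PBS with 0.5% NP-40 at 4°C. Values, from duplicates, describe thermal stability against control samples on a log2 fold-change scale.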

[2] = compound: NCC(=O)Nc1ccc(-n2nc(C(F)(F)F)cc2-c2ccc3c(ccc4ccccc43)c2)cc1
How it was run: as §1

silmitasertib = compound: O=C(O)c1ccc2c(c1)nc(Nc1cccc(Cl)c1)c1ccncc12 [silmitasertib]
How it was run: as §1

[3] = compound: O=C1NC(=O)C(c2cnc3ccccn23)=C1c1cn2c3c(cc(F)cc13)CN(C(=O)N1CCCCC1)CC2
How it was run: as §1

[4] = compound: NC(=O)c1cnc(N[C@@H]2CCCC[C@@H]2N)nc1Nc1cccc(-n2nccn2)c1
How it was run: as §1

vorinostat = compound: O=C(CCCCCCC(=O)Nc1ccccc1)NO [vorinostat]
How it was run: as §1

[5] = compound: NC(=O)Nc1cc(-c2cccc(F)c2)sc1C(=O)N[C@H]1CCCNC1
How it was run: as §1

entinostat = compound: Nc1ccccc1NC(=O)c1ccc(CNC(=O)OCc2cccnc2)cc1 [entinostat]
How it was run: as §1

citarinostat = compound: O=C(CCCCCCNC(=O)c1cnc(N(c2ccccc2)c2ccccc2Cl)nc1)NO [citarinostat]
How it was run: as §1

[6] = compound: c1cc(OCCN2CCCCC2)cc(-c2n[nH]c3ccc(-c4nnc[nH]4)cc23)c1
How it was run: as §1

Measured: log2 fold change

ARSK (UniProt Q6UWY0)
inactive: [1] -0.168 | [2] 0.053 | silmitasertib 0.078 | [3] 0.087

ARPIN isoform 2 (UniProt Q7Z6K5)
inactive: [4] 0.031 | [1] -0.213 | [2] 0 | vorinostat 0.053 | silmitasertib -0.015

ATG2A (UniProt Q2TAZ0)
inactive: vorinostat 0.042 | [3] -0.092

ASB6 (UniProt Q9NWX5)
inactive: [5] 0.076 | [4] 0.161 | [1] -0.216 | [2] -0.032 | entinostat -0.12 | vorinostat -0.075 | citarinostat 0.106 | silmitasertib -0.006 | [3] 0.059 | [6] 0.07

ATG14 (UniProt Q6ZNE5)
inactive: [5] -0.078 | [4] 0.131 | entinostat 0.046 | citarinostat 0.005 | [6] -0.071

ATP2C1 isoform 3 (UniProt P98194)
inactive: [4] 0.061 | [1] -0.132 | silmitasertib -0.035

ATPAF2 (UniProt Q8N5M1)
inactive: [5] -0.032 | [4] -0.055 | [1] -0.112 | [2] -0.042 | entinostat -0.057 | vorinostat 0.001 | citarinostat 0.031 | silmitasertib 0.05 | [3] -0.04 | [6] -0.017

ASNSD1 (UniProt Q9NWL6)
inactive: [5] 0.005 | entinostat -0.052 | [3] 0.051

ATF6 (UniProt P18850)
inactive: [5] -0.075 | entinostat -0.013

ARL5A (UniProt Q9Y689)
inactive: [5] -0.231 | [4] -0.091 | [1] -0.113 | entinostat -0.048 | vorinostat 0.026 | citarinostat 0.155 | silmitasertib -0.009 | [3] 0.038 | [6] -0.213

ATP6V0C (UniProt P27449)
inactive: [5] 0.117 | [4] -0.174 | [1] -0.092 | [2] -0.038 | entinostat 0.162 | vorinostat 0.205 | silmitasertib -0.01 | [3] 0.308

ARL5B (UniProt Q96KC2)
inactive: [5] -0.032 | [4] -0.151 | [1] -0.071 | [2] -0.064 | entinostat -0.031 | vorinostat 0.182 | silmitasertib -0.003 | [3] -0.184

ARL4A (UniProt P40617)
inactive: [4] -0.276 | [1] -0.117 | silmitasertib 0.068

ASF1B (UniProt Q9NVP2)
inactive: [5] -0.954 | [4] -0.174 | [1] -0.178 | [2] -0.078 | entinostat 0.036 | vorinostat 0.002 | silmitasertib -0.114 | [3] -0.18

ATP6V1H (UniProt Q9UI12)
inactive: [5] 0 | [4] -0.141 | [1] -0.201 | [2] -0.094 | entinostat 0.046 | vorinostat 0.032 | citarinostat 0.031 | silmitasertib 0.005 | [3] 0.025 | [6] -0.062

ATF7IP isoform 4 (UniProt Q6VMQ6)
inactive: [4] -0.1 | [1] -0.282 | [2] -0.002 | vorinostat -0.07 | silmitasertib 0 | [3] 0.136

Random excerpt: two entries already listed, in no set order.
ATP6V1H (UniProt Q9UI12)
inactive: [5] 0 | [4] -0.141 | [1] -0.201 | [2] -0.094 | entinostat 0.046 | vorinostat 0.032 | citarinostat 0.031 | silmitasertib 0.005 | [3] 0.025 | [6] -0.062

ASF1B (UniProt Q9NVP2)
inactive: [5] -0.954 | [4] -0.174 | [1] -0.178 | [2] -0.078 | entinostat 0.036 | vorinostat 0.002 | silmitasertib -0.114 | [3] -0.18

The list goes on.

ATP6V1E1 (UniProt P36543)
inactive: [5] -0.046 | [4] -0.105 | [1] -0.037 | [2] -0.072 | entinostat 0.033 | vorinostat -0.005 | citarinostat -0.011 | silmitasertib -0.015 | [3] -0.076 | [6] -0.069

ASXL1 (UniProt Q8IXJ9)
inactive: [5] -0.031 | [1] 0.088 | entinostat -0.072 | citarinostat -0.029 | silmitasertib 0.006 | [3] 0.039 | [6] -0.316
